Source: PubChem BioAssay AID2685 (National Center for Advancing Translational Sciences (NCATS), 2010)
This is one part of the list. Shown are side measurements of this screen, not its main read-out; they come without a call. Most of these compounds were active or inconclusive in the main read-out, so they are no random draw. Potencies come from curve fits of mixed quality, noted in brackets.

Test: qHTS Assay for Lipid Storage Modulators in Drosophila S3 Cells;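 on cell number change: cells counted by Cell Tracker Red CMTPX staining in the red channel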
Settings: BODIPY lipid droplet fluorescence, 18-24 h; for cell number change: measured here: cell count max response, cells fed with added oleic acid
Outline: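 Drosophila S3 cells got compounds at several concentrations plus oleic acid (400 uM solution). Laser-scanning cytometry with 488 nm excitation read lipid droplets at 500-530 nm and cells at 575-640 nm. Percent activity was relative to 20 uM Triacsin C.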

[1] = measured here: cell number channel AC50, cells fed with added oleic acid
[2] = measured here: lipid fluorescence (Fed channel) AC50, cells fed with added oleic acid

SMILES | cell number change | AC50 [1] | AC50 [2]
Cn1nc(C(=O)N2CCN(c3ccccn3)CC2)c2ccccc2c1=O | 32.1% | 5.8 µM [rising, single point] | 
Cc1ccccc1OCC(=O)N(Cc1ccc(N(C)C)cc1)C1CCS(=O)(=O)C1 (stereo not given) | -13.5% |  | 0.82 µM [rising, single point]
O=C1NC(=S)N(c2cccc(Cl)c2)C12CCCCC2 | 5.03% |  | 29.1 µM [rising, single point]
CC(C)(C)OC(=O)NCCCCCc1cn([C@@H](CO)C(=O)NCCCCCCCCCCC(=O)N2CCN(C(=O)OC(C)(C)C)CC2)nn1 | -39.9% | 8.2 µM [falling, full curve] | 6.51 µM [falling, single point]
O=C(O)c1ccc(Cl)c(S(=O)(=O)Nc2ccc3[nH]c(=O)[nH]c3c2)c1 | -43.2% | 4.11 µM [falling, single point] | 
CC(=O)Nc1ccc(NC(=O)COC(=O)c2c3c(nc4ccccc24)CCN(Cc2ccccc2)C3)cc1 | 12.2% |  | 0.82 µM [rising, full curve, poor fit]
CCCCc1nc2n[nH]c(N)c2c2c1CCCC2 | 53.4% | 7.31 µM [rising, partial curve] | 
CCCC(=O)Nc1ccccc1-c1nnn(CC(=O)Nc2ccc(OC)cc2)n1 |  |  | 0.411 µM [rising, partial curve, poor fit]
Cc1ccc(SCCC(=O)Nc2ccc(OCc3ccccc3)cc2)cc1 | -33.4% | 29.1 µM [falling, partial curve, poor fit] | 0.00461 µM [falling, full curve, poor fit]
Cc1ccc2cc(N)ccc2n1 | -1.23% |  | 0.00461 µM [falling, full curve, poor fit]
Cn1c(=O)c2[nH]c(-c3ccccc3O)nc2n(C)c1=O | 38.9% | 29.1 µM [rising, single point] | 29.1 µM [rising, single point]
Cc1cc(C)cc(C(=O)NCC(=O)N2CCN(c3cccc(Cl)c3)CC2)c1 | -6.94% |  | 
COc1cccc(-c2noc(CCC(=O)NC3CCCCC3)n2)c1 | 9.22% |  | 
CCCSc1nnc(NC(=O)c2nc(SC)ncc2Cl)s1 | 31.9% | 0.291 µM [rising, full curve, poor fit] | 6.51 µM [rising, single point]
CC(=N[C@@H]1CCCC[C@H]1N=C(C)c1ccccc1O)c1ccccc1O | -7.54% |  | 0.366 µM [falling, full curve, poor fit]
Cn1c(SCc2ccc([N+](=O)[O-])cc2)nnc1-c1cccnc1 | -15.8% |  | 
Cc1ccc(CCN2CC(C(=O)NCCN3CCCCCC3)CC2=O)cc1 (stereo not given) | 39.5% |  | 
CC(C(=O)N=Nc1c(O)n(C)c2ccc(Br)cc12)n1cnc2ccccc2c1=O (stereo not given) | 7.25% | 0.411 µM [rising, partial curve, poor fit] | 0.651 µM [rising, partial curve, poor fit]
CCOc1ccc(Oc2ccc(NC(=O)CSc3nncn3C)cc2)cc1 | 24% |  | 
O=S(=O)(NC(=NCc1ccccc1)c1ccccc1)c1ccccc1 | -7.89% |  | 
Cc1ccc(CN2CCCOCCS2(=O)=O)cc1 | 34.1% | 0.731 µM [rising, partial curve, poor fit] | 

SMILES | cell number change | AC50 [1] | AC50 [2]
COc1ccc(-c2cc(C(F)F)n3ncc(C(=O)N4CCSCC4)c3n2)cc1 | -7.28% |  | 
CN(CC(=O)Nc1ccccc1Br)C(=O)CCc1ccccc1 | -4.76% |  | 10.3 µM [rising, partial curve, poor fit]
CCOC(=O)c1c(C)[nH]c(C)c1S(=O)(=O)NCCc1ccco1 | 8.24% |  | 6.51 µM [falling, single point]
Cn1c(SCC(=O)NCc2ccc3c(c2)OCO3)nnc1C1COc2ccccc2O1 (stereo not given) | -77.1% | 13 µM [falling, partial curve] | 10.3 µM [falling, partial curve]
Cc1ccc(C(=O)c2cc([N+](=O)[O-])ccc2N2CCCCC2)cc1 | 1.59% |  | 1.16 µM [falling, single point]
COc1ccc(-c2noc(CNC(=O)Nc3ccc(F)cc3)n2)cc1 | 33.4% |  | 
Cc1ccc(CNC(=O)CN(C)S(=O)(=O)c2cccc3cccnc23)cc1 |  |  | 18.4 µM [rising, single point]
O=C(COC(=O)c1ccc(F)cc1F)Nc1ccc(Cl)cn1 | -25.4% |  | 0.13 µM [falling, full curve, poor fit]
Cc1ccc(OC(=O)NC2CCS(=O)(=O)C2)cc1C (stereo not given) | 38.3% | 1.64 µM [rising, partial curve] | 
COc1ccc(CCNC(=O)CSc2ccc(-c3ccco3)nn2)cc1 | -23% | 0.0366 µM [falling, full curve, poor fit] | 
Cc1ccc(-c2nn(-c3cccc(F)c3)cc2CNCCc2ccncc2)o1 | 9.47% | 0.0651 µM [rising, full curve, poor fit] | 0.058 µM [rising, full curve, poor fit]
O=C(O)CCCNC1=NCCC1 | -1.26% |  | 6.51 µM [falling, single point]
COc1ccc(-n2c(SCC(=O)c3c(N)n(C)c(=O)n(C)c3=O)nc3ccccc32)cc1 | 25.6% |  | 
O=c1cc(-c2ccc3c(c2)OCO3)oc2ccccc12 |  | 0.461 µM [rising, partial curve] | 
COc1ccccc1NC(=O)C1CCC(CNc2c(N3CCCCC3)c(=O)c2=O)CC1 (stereo not given) | 10.5% |  | 
COc1cccc(NC(=O)[C@@H]2CCCN2C(=O)C2CCN(S(=O)(=O)c3ccc(C)cc3)CC2)c1 | 9.09% | 2.91 µM [rising, partial curve] | 
O=C(CSc1nnc(-c2ccccc2)o1)N1CCOCC1 |  | 0.291 µM [rising, full curve, poor fit] | 
O=C(CN1CCN(C(=O)c2ccco2)CC1)Nc1ccccc1-c1ccccc1 | -16.6% |  | 
Cc1cccc(NC(c2ccc(O)cc2)c2ccc3ccc(C)nc3c2O)n1 (stereo not given) | -105% | 29.1 µM [falling, partial curve] | 20.6 µM [falling, partial curve]
Cc1ccc2c(c1)c1c3n2CCN(C(=O)CCl)C3CCC1 (stereo not given) | -38.5% | 14.6 µM [falling, partial curve] | 14.6 µM [falling, partial curve]
NCCCC(=O)N1c2ccccc2Sc2ccccc21 | -31.6% | 2.31 µM [falling, single point] | 3.26 µM [falling, single point]

Two of the compounds above, as labelled records.
Cc1ccc(C(=O)c2cc([N+](=O)[O-])ccc2N2CCCCC2)cc1
  cell number change: 1.59%; AC50 [2]: 1.16 µM [falling, single point]
Cc1ccc(-c2nn(-c3cccc(F)c3)cc2CNCCc2ccncc2)o1
  cell number change: 9.47%; AC50 [1]: 0.0651 µM [rising, full curve, poor fit]; AC50 [2]: 0.058 µM [rising, full curve, poor fit]

The listing continues.

SMILES | cell number change | AC50 [1] | AC50 [2]
CC(C)[C@H](NC(=O)OCc1ccccc1)C(=O)OCC(=O)Nc1ccc(N2CCOCC2)cc1 | -9.78% |  | 6.51 µM [falling, single point]
O=C1C2C3C=CC(C4CC34)C2C(=O)N1/N=C/c1ccc(-c2cccc([N+](=O)[O-])c2)o1 (stereo not given) | -5.24% |  | 0.013 µM [rising, full curve]
COc1ccc(Cc2nnc(NC(=O)C(C)C)s2)cc1 | 3.84% | 0.517 µM [falling, full curve, poor fit] | 
C(#Cc1ccccc1)CN1CCCCC1 | 10.6% |  | 0.00651 µM [falling, full curve, poor fit]
CC(=O)Nc1ccc(NS(=O)(=O)c2cn(C)c(=O)n(C)c2=O)cc1 | -7.06% |  | 0.231 µM [falling, full curve, poor fit]
COc1cccc(N2C(=O)C3C(C2=O)C2C=CC3C23CC3)c1 (stereo not given) | -78.2% | 20.6 µM [falling, partial curve] | 0.651 µM [falling, single point]
CC(C)[C@H](NS(=O)(=O)c1cccc(Cl)c1)C(=O)OCC(=O)N1CCN(c2ccccc2)CC1 | 9.95% |  | 29.1 µM [falling, single point]
CCO[C@H]1OC(C(=O)N2CCN(Cc3ccc4c(c3)OCO4)CC2)=C[C@@H](c2csc3ccccc23)[C@@H]1CCCO | -24.4% |  | 29.1 µM [falling, single point]
COc1cccc(C2C3=C(N=C4SCC(=O)N42)c2ccccc2CC3)c1OC (stereo not given) | -15.5% |  | 
Cc1ccc(OC(=O)COc2ccccc2)c(-n2nc3ccccc3n2)c1 | -3.42% |  | 
CCCCN(C)CCNC(=S)Nc1ccc2nc(N3CCN(CC)CC3)cc(C)c2c1 | 9.01% |  | 29.1 µM [rising, single point]
CCN(CC(=O)Nc1ccccc1OC)C(=O)c1cc(S(=O)(=O)N2CCCCCC2)ccc1OC | 81.5% | 16.4 µM [rising, single point] | 
NNC(=O)c1ccc(CSc2cccc3cccnc23)cc1 | -8.55% |  | 
Cc1cc(C)c2oc(C(=O)NC3CCS(=O)(=O)C3)cc(=O)c2c1 (stereo not given) | -16.5% |  | 29.1 µM [falling, single point]
COc1ccc(-c2noc(CCC(=O)Nc3cc(Cl)c(OC)cc3OC)n2)cc1 |  | 4.11 µM [rising, single point] | 2.91 µM [rising, partial curve]
O=C(COc1ncnc2ccccc12)N1CCOCC1 | -24.5% |  | 25.9 µM [falling, single point]
O=C(CSc1nnc(CNC(=O)c2ccccc2)o1)NCCc1ccccc1 | -31.1% | 0.103 µM [falling, full curve, poor fit] | 
CC(=O)c1ccc(NC(=O)c2ccc(-n3cncn3)c([N+](=O)[O-])c2)cc1 | -29.6% | 0.00461 µM [falling, full curve, poor fit] | 
COc1ccc(NC(=O)CSCC(=O)NCc2cccc(C(F)(F)F)c2)cc1 | 8.18% |  | 0.13 µM [falling, partial curve]

Some of these compounds in order of number of heavy atoms, high to low:
SMILES | cell number change | AC50 [1] | AC50 [2]
CCO[C@H]1OC(C(=O)N2CCN(Cc3ccc4c(c3)OCO4)CC2)=C[C@@H](c2csc3ccccc23)[C@@H]1CCCO | -24.4% |  | 29.1 µM [falling, single point]
CCN(CC(=O)Nc1ccccc1OC)C(=O)c1cc(S(=O)(=O)N2CCCCCC2)ccc1OC | 81.5% | 16.4 µM [rising, single point] | 
CC(C)[C@H](NC(=O)OCc1ccccc1)C(=O)OCC(=O)Nc1ccc(N2CCOCC2)cc1 | -9.78% |  | 6.51 µM [falling, single point]
CC(C)[C@H](NS(=O)(=O)c1cccc(Cl)c1)C(=O)OCC(=O)N1CCN(c2ccccc2)CC1 | 9.95% |  | 29.1 µM [falling, single point]
CCCCN(C)CCNC(=S)Nc1ccc2nc(N3CCN(CC)CC3)cc(C)c2c1 | 9.01% |  | 29.1 µM [rising, single point]
O=C1C2C3C=CC(C4CC34)C2C(=O)N1/N=C/c1ccc(-c2cccc([N+](=O)[O-])c2)o1 (stereo not given) | -5.24% |  | 0.013 µM [rising, full curve]
COc1ccc(-c2noc(CCC(=O)Nc3cc(Cl)c(OC)cc3OC)n2)cc1 |  | 4.11 µM [rising, single point] | 2.91 µM [rising, partial curve]
COc1ccc(NC(=O)CSCC(=O)NCc2cccc(C(F)(F)F)c2)cc1 | 8.18% |  | 0.13 µM [falling, partial curve]
Cc1ccc(OC(=O)COc2ccccc2)c(-n2nc3ccccc3n2)c1 | -3.42% |  | 
CC(=O)c1ccc(NC(=O)c2ccc(-n3cncn3)c([N+](=O)[O-])c2)cc1 | -29.6% | 0.00461 µM [falling, full curve, poor fit] | 
CC(=O)Nc1ccc(NS(=O)(=O)c2cn(C)c(=O)n(C)c2=O)cc1 | -7.06% |  | 0.231 µM [falling, full curve, poor fit]
Cc1cc(C)c2oc(C(=O)NC3CCS(=O)(=O)C3)cc(=O)c2c1 (stereo not given) | -16.5% |  | 29.1 µM [falling, single point]
NNC(=O)c1ccc(CSc2cccc3cccnc23)cc1 | -8.55% |  | 
COc1ccc(Cc2nnc(NC(=O)C(C)C)s2)cc1 | 3.84% | 0.517 µM [falling, full curve, poor fit] | 
C(#Cc1ccccc1)CN1CCCCC1 | 10.6% |  | 0.00651 µM [falling, full curve, poor fit]
